No constants are given. Whether binding was seen depends on the method and setting. Binding seen in cells or lysates may run through a third protein. Some binding calls cover weakened binding; strength is not graded here. For part of these data: Sequences can lack the tags named with a protein.
Tests used:
[1] = biological target: T1, Flag-tagged PIR (Pirin) (human) (UniProt O00625); test: co-IP; Flag-PIR and HA-RELB transiently expressed in HEK293T cells; IP with anti-Flag agarose, Flag-PIR and HA-RELB detected in the precipitates
T1 sequence: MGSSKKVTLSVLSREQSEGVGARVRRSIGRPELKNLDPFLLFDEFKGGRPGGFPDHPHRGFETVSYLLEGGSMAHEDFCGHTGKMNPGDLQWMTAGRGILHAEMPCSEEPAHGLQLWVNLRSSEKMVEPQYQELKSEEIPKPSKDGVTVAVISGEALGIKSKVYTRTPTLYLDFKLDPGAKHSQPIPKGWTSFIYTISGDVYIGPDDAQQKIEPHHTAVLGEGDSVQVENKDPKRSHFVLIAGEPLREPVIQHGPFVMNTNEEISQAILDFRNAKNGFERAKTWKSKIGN

Protein sequences, listed by entry. Tags and fused reporters are not part of them. Residues count along the entry.
UniProt P25445, residues 26-335: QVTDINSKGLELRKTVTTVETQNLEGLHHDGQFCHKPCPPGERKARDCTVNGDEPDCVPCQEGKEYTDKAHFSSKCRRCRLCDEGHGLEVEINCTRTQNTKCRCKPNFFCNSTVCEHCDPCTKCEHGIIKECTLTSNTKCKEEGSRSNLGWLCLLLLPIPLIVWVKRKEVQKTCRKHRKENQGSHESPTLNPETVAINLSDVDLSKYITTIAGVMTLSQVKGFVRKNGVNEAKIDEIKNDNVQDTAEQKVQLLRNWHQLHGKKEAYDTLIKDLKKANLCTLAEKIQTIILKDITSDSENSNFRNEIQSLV

[2] = biological target: T2, PIR (Pirin), endogenous in HCT116 cells (human (endogenous in HCT116)) (UniProt O00625); test: co-IP; endogenous proteins in HCT116 cells; precipitating antibody not stated
T2 sequence: T1 sequence

HA-tagged FAS (human) = HA-tagged FAS (human) (UniProt P25445); test: co-IP; HA-tagged protein transiently expressed in HCT116 cells; IP with anti-HA; E2F1 detected as a negative control

B1: HA-tagged RELB (protein, UniProt Q01201 1-579)
chain: MLRSGPASGPSVPTGRAMPSRRVARPPAAPELGALGSPDLSSLSLAVSRSTDELEIIDEYIKENGFGLDGGQPGPGEGLPRLVSRGAASLSTVTLGPVAPPATPPPWGCPLGRLVSPAPGPGPQPHLVITEQPKQRGMRFRYECEGRSAGSILGESSTEASKTLPAIELRDCGGLREVEVTACLVWKDWPHRVHPHSLVGKDCTDGICRVRLRPHVSPRHSFNNLGIQCVRKKEIEAAIERKIQLGIDPYNAGSLKNHQEVDMNVVRICFQASYRDQQGQMRRMDPVLSEPVYDKKSTNTSELRICRINKESGPCTGGEELYLLCDKVQKEDISVVFSRASWEGRADFSQADVHRQIAIVFKTPPYEDLEIVEPVTVNVFLQRLTDGVCSEPLPFTYLPRDHDSYGVDKKRKRGMPDVLGELNSSDPHGIESKRRKKKPAILDHFLPNHGSGPFLPPSALLPDPDFFSGTVSLPGLEPPGGPDLLDDGFAYDPTAPTLFTMLDLLPPAPPHASAVVCSGGAGAVVGETPGPEPLTLDSYQAPGPGDGGTASLVGSNMFPNHYREAAFGGGLLSPGPEAT
**Q.** B1 was tested. Which binding [1] did it give?
**A.** The binding was “binds”.

B2: RELB, endogenous in HCT116 cells (protein, UniProt Q01201 1-579)
chain: B1 chain
**Q.** Which binding [2] does the source give for B2 here?
**A.** The binding was “binds”.

B3: PIR (Pirin), endogenous in HCT116 cells (protein, UniProt O00625 1-290)
chain: T1 sequence
**Q.** Which binding (HA-tagged FAS (human)) does the source give for B3 here?
**A.** The binding was “binds”.
